# No constants are given. Whether binding was seen depends on the method and setting.
# The chains behind the UniProt entries cited, without tags or fusion partners.
# UniProt Q9H4E5: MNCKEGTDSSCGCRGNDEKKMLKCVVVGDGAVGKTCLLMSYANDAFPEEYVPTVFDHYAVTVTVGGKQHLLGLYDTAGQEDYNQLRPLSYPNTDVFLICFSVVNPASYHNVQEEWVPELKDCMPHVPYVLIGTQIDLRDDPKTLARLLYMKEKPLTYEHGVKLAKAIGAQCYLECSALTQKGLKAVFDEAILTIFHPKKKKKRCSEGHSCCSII
# UniProt P52565: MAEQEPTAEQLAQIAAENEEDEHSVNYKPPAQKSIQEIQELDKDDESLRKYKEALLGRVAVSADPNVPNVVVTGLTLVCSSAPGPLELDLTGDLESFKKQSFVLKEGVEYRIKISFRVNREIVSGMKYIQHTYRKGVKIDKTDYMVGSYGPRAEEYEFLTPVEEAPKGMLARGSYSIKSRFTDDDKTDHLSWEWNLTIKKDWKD
# Target: TCL (UniProt Q9H4E5)
# Assay: stopped-flow fluorimetry; association (kobs) at one concentration: 2 µM GDI mixed with 0.2 µM mdGDP-bound RHO GTPase; 25 °C, 30 mM Tris/HCl pH 7.5, 10 mM K2HPO4/KH2PO4 pH 7.5, 5 mM MgCl2, 3 mM DTT; both purified
substance,measurement,value
"GDI1 (RHOGDI1), wild type (from UniProt P52565 1-204)",binding,"no binding (tested: 2 µM GDI, 0.2 µM mdGDP-bound GTPase)"

# Reference: article PMC8622166
